# Values quoted from earlier work, collected in patent US20140335172A1, “OPHTHALMOLOGICAL RINSING AGENT AND METHODS THEREFOF” (priority 2013, published 2014).
# At least one structure is not confirmed: it was looked up by name or label, or the drawing left a doubt.
# Conditions: cited from earlier work
row,SMILES,Interface Tension (mN/m)
1,FC(F)(F)C(F)(F)C(F)(F)C(F)(F)C(F)(F)C(F)(F)C(F)(F)C(F)(F)Br [PFOB],51.3
2,CCCCCCCCC(F)(F)C(F)(F)C(F)(F)C(F)(F)C(F)(F)C(F)(F)F [F6H8],45.3
3,CCCCCCC(F)(F)C(F)(F)C(F)(F)C(F)(F)C(F)(F)C(F)(F)F [F6H6],49.6
